Experimental findings from patent US11993582B2, “Crystalline forms of a LTA4H inhibitor” (Novartis AG, priority 2018, dated 2024) are described below.

This series is described as follows: Corrosion of steel coupons by the salt.

Turning to `Cl.N[C@@H](CC(=O)O)Cn1nnc(-c2ccc(Oc3ncc(Cl)cc3F)cc2)n1` [HCl salt, (S)-3-amino-4-(5-(4-((5-chloro-3-fluoropyridin-2-yl)oxy)phenyl)-2H-tetrazol-2-yl)butanoic acid hydrochloride salt], the Corrosion entry runs as follows: (steel coupon #1.2767) “strong corrosion”; (steel coupon #1.2803) “moderate corrosion”.
